Where a name gives a salt, the structure may show the parent alone. The list shows a part of the results. Hit calls seldom repeat between salt and free forms of one compound.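 In K562 cells expressing nanoluciferase-fused kinases, luminescence was recorded at 4 h intervals between 2 and 18 h, normalized as percent of control with DMSO at 100% and a positive control at 0%. A significant (2 sigma) signal drop marks a time point as decreased. The authors' rule for a hit is not shown and takes in more than the number of time points.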
Legend:
Assay in all cases: kinase-Nluc reporter destabilization hit call (1 = scored as downregulated) (binary); higher = compound decreases kinase abundance
Conditions in all cases: K562; 2-18 h
[1] = target: CDK7 (UniProt P50613)
[2] = target: CDK9 (UniProt P50750)
[3] = target: CHEK2 (UniProt O96017)
[4] = target: CSF1R (UniProt P07333)
[5] = target: CSK (UniProt P41240)
[6] = target: CSNK1A1 (UniProt P48729)
[7] = target: CSNK1D (UniProt P48730)
[8] = target: DDR1 (UniProt Q08345)
[9] = target: DYRK1B (UniProt Q9Y463)
[10] = target: DYRK2 (UniProt Q92630)

Amino acid sequences for entries named in this document (tags omitted). A change or cut given only in a name is not applied to a line headed by its entry.
UniProt P50613: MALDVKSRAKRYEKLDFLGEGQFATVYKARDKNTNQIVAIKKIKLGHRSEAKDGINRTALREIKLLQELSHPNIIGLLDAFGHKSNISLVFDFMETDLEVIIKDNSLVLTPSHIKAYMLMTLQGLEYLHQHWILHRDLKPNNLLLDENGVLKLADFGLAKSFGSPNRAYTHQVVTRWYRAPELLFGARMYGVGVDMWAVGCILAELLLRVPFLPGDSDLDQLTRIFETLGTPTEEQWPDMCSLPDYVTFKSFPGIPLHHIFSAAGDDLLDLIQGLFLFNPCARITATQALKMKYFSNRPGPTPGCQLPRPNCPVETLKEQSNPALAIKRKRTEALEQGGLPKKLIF
UniProt P50750, whole entry: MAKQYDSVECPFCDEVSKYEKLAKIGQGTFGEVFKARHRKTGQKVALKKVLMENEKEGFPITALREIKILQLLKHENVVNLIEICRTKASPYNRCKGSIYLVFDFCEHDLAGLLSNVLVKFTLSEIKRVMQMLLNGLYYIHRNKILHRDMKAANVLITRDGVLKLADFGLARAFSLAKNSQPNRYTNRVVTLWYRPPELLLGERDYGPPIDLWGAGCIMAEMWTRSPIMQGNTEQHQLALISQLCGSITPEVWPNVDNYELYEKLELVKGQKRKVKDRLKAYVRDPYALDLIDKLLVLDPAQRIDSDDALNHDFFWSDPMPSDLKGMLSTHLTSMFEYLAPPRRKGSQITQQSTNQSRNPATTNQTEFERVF
UniProt O96017, whole entry: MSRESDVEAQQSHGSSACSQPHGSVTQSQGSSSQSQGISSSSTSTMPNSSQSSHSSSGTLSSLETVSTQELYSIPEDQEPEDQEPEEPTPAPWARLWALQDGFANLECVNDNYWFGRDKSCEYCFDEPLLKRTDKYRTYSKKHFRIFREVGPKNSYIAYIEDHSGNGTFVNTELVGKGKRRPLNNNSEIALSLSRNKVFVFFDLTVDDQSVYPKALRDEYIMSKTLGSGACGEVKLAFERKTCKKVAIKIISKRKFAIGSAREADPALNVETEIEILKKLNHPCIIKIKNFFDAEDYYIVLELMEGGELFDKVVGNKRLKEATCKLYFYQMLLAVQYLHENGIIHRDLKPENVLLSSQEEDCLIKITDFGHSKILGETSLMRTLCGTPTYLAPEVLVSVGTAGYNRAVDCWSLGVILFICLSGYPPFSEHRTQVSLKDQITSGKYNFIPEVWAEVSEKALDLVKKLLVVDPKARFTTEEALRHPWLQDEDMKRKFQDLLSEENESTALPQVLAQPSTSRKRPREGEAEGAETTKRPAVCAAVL
UniProt P07333, whole entry: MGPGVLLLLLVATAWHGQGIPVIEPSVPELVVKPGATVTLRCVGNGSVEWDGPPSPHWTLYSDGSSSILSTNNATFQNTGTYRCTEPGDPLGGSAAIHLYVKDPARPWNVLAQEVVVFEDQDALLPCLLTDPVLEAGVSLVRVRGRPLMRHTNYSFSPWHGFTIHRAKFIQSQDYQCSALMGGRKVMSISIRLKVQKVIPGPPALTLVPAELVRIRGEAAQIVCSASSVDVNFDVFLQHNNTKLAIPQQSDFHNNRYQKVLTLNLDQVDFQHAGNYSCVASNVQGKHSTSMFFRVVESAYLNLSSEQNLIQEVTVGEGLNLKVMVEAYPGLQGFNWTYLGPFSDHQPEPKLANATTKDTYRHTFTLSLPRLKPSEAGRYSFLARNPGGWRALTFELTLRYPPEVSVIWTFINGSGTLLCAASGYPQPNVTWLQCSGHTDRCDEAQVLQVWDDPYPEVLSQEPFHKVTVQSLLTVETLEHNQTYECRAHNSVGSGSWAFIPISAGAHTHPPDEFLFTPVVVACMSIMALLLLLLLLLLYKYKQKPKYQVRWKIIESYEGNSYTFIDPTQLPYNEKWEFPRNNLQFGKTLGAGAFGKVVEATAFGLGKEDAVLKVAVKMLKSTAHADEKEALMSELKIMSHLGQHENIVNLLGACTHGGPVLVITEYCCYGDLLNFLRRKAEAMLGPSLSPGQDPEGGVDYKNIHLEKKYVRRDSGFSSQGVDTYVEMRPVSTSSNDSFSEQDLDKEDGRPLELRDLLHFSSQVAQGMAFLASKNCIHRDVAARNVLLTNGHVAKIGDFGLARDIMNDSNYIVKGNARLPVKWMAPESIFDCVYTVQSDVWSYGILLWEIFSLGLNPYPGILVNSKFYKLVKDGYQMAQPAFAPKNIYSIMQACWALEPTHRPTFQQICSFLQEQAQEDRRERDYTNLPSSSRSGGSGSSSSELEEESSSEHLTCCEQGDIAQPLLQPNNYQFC
UniProt P41240: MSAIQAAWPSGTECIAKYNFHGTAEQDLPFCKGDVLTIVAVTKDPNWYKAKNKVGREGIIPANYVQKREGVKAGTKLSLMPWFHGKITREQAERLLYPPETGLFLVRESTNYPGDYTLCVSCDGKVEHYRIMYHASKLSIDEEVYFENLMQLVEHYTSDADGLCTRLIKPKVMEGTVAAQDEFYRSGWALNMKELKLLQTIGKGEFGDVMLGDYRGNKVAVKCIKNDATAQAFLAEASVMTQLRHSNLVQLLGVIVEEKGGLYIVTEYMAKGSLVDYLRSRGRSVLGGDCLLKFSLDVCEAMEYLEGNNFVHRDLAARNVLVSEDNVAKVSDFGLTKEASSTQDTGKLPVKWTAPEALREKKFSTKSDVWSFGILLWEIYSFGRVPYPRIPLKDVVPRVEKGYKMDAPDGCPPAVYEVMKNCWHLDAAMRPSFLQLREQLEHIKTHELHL
UniProt P48729: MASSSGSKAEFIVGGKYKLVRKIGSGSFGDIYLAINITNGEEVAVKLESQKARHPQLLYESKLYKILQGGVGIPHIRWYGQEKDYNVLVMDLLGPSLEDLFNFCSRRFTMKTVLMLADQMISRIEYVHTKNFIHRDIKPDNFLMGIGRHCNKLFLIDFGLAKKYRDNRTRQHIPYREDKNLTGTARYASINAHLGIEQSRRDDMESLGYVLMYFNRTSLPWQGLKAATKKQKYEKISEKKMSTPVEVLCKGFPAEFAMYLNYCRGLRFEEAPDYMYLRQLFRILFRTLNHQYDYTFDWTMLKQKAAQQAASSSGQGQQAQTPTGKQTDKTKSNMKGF
UniProt P48730: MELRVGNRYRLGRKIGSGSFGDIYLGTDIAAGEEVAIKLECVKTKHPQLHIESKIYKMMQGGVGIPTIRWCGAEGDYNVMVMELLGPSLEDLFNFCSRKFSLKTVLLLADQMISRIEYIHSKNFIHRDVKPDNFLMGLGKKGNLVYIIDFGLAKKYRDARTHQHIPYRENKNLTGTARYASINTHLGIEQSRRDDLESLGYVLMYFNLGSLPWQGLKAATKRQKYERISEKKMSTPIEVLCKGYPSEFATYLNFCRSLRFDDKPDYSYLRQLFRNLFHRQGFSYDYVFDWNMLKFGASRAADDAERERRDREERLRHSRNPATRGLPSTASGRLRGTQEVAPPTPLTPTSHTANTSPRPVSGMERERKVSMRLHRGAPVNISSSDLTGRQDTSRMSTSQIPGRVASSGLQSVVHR
UniProt Q08345: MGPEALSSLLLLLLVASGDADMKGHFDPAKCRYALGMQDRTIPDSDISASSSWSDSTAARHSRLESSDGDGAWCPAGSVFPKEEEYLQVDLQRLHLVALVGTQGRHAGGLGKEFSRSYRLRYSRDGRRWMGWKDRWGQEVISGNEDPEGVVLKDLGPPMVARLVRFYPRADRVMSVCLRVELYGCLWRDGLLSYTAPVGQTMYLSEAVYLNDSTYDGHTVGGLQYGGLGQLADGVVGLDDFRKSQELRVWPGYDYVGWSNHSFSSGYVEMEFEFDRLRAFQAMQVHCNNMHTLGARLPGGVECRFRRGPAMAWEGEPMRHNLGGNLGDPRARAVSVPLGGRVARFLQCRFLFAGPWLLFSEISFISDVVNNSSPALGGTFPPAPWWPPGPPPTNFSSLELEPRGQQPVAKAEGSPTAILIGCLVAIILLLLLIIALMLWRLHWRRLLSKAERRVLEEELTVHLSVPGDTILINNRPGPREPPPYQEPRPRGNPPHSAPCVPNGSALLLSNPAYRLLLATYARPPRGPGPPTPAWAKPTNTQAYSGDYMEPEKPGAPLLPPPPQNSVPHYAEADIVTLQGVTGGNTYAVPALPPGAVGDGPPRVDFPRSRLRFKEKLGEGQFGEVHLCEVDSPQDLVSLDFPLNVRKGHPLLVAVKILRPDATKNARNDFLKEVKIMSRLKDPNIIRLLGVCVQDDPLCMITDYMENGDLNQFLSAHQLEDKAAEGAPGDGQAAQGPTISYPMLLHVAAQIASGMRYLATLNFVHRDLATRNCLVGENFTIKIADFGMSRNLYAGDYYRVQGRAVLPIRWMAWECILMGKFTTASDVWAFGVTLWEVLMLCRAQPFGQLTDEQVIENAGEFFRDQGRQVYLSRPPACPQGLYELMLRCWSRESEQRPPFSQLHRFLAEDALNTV
UniProt Q9Y463, whole entry, looked up: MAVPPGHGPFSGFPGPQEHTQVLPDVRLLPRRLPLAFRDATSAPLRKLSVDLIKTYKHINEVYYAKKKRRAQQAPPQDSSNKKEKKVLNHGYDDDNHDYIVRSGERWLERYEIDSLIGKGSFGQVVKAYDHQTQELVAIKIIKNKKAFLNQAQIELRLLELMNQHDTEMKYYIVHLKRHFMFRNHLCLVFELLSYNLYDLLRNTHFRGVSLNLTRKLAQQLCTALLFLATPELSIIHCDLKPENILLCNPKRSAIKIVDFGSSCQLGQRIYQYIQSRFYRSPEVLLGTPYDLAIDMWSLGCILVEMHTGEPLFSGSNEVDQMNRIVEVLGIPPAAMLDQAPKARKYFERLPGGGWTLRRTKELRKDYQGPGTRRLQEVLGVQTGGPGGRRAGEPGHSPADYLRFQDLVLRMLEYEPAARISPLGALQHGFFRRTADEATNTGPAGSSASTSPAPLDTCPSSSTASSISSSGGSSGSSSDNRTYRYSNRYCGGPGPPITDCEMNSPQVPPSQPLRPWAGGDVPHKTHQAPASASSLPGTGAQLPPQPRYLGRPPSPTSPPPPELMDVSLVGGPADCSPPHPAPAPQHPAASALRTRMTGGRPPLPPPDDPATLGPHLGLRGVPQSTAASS
UniProt Q92630: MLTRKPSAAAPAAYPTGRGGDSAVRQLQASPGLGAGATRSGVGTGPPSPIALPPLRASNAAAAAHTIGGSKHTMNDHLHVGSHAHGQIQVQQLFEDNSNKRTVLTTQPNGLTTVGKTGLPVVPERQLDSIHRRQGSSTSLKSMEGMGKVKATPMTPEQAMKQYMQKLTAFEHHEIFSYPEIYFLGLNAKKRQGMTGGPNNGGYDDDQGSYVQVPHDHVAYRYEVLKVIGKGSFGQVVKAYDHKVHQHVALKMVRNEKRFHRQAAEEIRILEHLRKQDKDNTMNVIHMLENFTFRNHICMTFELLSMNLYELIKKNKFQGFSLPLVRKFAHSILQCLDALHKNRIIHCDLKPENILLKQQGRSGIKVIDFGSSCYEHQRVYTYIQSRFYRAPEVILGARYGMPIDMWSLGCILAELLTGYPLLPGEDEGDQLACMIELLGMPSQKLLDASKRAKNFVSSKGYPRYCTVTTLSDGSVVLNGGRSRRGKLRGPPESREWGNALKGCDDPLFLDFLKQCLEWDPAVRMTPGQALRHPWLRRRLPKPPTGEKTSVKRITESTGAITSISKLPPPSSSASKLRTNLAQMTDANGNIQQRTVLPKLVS

Measured: kinase-Nluc reporter destabilization hit call

Cc1nn(CC(F)(F)F)cc1Nc1ncc(Br)c(NCc2ccc(S(N)(=O)=O)cc2)n1 (10 µM)
inactive: [1] 0 | [2] 0 | [3] 0 | [4] 0 | [5] 0 | [6] 0 | [7] 0 | [8] 0 | [9] 0 | [10] 0

COCCNc1cc(NC(=O)N2CCCc3cc(CN4CCOCC4=O)c(C=O)nc32)ncc1C#N (10 µM)
inactive: [1] 0 | [2] 0 | [3] 0 | [4] 0 | [5] 0 | [6] 0 | [7] 0 | [8] 0 | [9] 0 | [10] 0

CS[C@@]1(C(=O)Nc2ccc3[nH]nc(-c4ccc(OC(C)C)nc4)c3c2)CCN(CC(=O)N2CC=C(c3ccc(-c4ncn(C)n4)cc3)CC2)C1 (2.5 µM)
inactive: [1] 0 | [2] 0 | [3] 0 | [4] 0 | [5] 0 | [6] 0 | [7] 0 | [8] 0 | [9] 0 | [10] 0

COc1cc2nccc(Nc3cccc(Oc4ccccc4)c3)c2cc1OC (2.5 µM)
inactive: [1] 0 | [2] 0 | [3] 0 | [4] 0 | [5] 0 | [6] 0 | [7] 0 | [8] 0 | [9] 0 | [10] 0

CN(C)C(=O)c1cc2cnc(Nc3ccc(N4CCN(CCCCNC(=O)COc5cccc6c5C(=O)N(C5CCC(=O)NC5=O)C6=O)CC4)cn3)nc2n1C1CCCC1 (stereo not given) (10 µM)
inactive: [1] 0 | [2] 0 | [3] 0 | [4] 0 | [5] 0 | [6] 0 | [7] 0 | [8] 0 | [9] 0 | [10] 0

CC/C(=C(\c1ccccc1)c1ccc(OCCNC)cc1)c1ccccc1 [N-Desmethyltamoxifen (hydrochloride)] (2.5 µM)
inactive: [1] 0 | [2] 0 | [3] 0 | [4] 0 | [5] 0 | [6] 0 | [7] 0 | [8] 0 | [9] 0 | [10] 0

COc1ccc(Cl)cc1N(CC(=O)Nc1ccc2c(c1)OCO2)S(=O)(=O)c1ccccc1 (2.5 µM)
inactive: [1] 0 | [2] 0 | [3] 0 | [4] 0 | [5] 0 | [6] 0 | [7] 0 | [8] 0 | [9] 0 | [10] 0

O=C1OC(COc2ccccc2[N+](=O)[O-])CC1Cc1ccccc1 (stereo not given) (10 µM)
inactive: [1] 0 | [2] 0 | [3] 0 | [4] 0 | [5] 0 | [6] 0 | [7] 0 | [8] 0 | [9] 0 | [10] 0

O=C(C#Cc1ccccc1)c1cccc([N+](=O)[O-])c1 (10 µM)
inactive: [1] 0 | [2] 0 | [3] 0 | [4] 0 | [5] 0 | [6] 0 | [7] 0 | [8] 0 | [9] 0 | [10] 0

Nc1ccc(C(=O)Nc2cccc(-c3nc(N4CCOCC4)c4oc5ncccc5c4n3)c2)cn1 (10 µM)
inactive: [1] 0 | [2] 0 | [3] 0 | [4] 0 | [5] 0 | [6] 0 | [7] 0 | [8] 0 | [9] 0
active: [10] 1

Cc1ccc(C2CC(=O)NC(SCC(=O)Nc3nccs3)=C2C#N)cc1 (stereo not given) [Necrostatin-34] (10 µM)
inactive: [1] 0 | [2] 0 | [3] 0 | [4] 0 | [5] 0 | [6] 0 | [7] 0 | [8] 0 | [9] 0 | [10] 0

Nc1nccc(Oc2ccc3c(C(=O)Nc4cccc(C(F)(F)F)c4)cccc3c2)n1 (10 µM)
inactive: [1] 0 | [2] 0 | [3] 0 | [4] 0 | [5] 0 | [6] 0 | [7] 0 | [8] 0 | [9] 0 | [10] 0

Cc1ccc(NC(=O)N2CCN(c3nc(N)nc4sc(-c5cccnc5)nc34)CC2)cc1 [PI4KIII beta inhibitor 3] (10 µM)
inactive: [1] 0 | [2] 0 | [3] 0 | [4] 0 | [5] 0 | [6] 0 | [7] 0 | [8] 0 | [9] 0 | [10] 0

CCOc1cc(=O)[nH]cc1-c1ccc(CC(=O)Nc2cc(C(C)(C)C(F)(F)F)on2)c(F)c1 (10 µM)
inactive: [1] 0 | [2] 0 | [3] 0 | [4] 0 | [5] 0 | [6] 0 | [7] 0 | [8] 0 | [9] 0 | [10] 0

C[C@H](Nc1cc2c(-c3ccc4c(c3)OCO4)noc2cn1)c1ccccc1 (10 µM)
inactive: [1] 0 | [2] 0 | [3] 0 | [4] 0 | [5] 0 | [6] 0 | [7] 0 | [8] 0 | [9] 0 | [10] 0

CCc1cc(Nc2nccc(-c3c(-c4ccc(OC)c(C(=O)Nc5c(F)cccc5F)c4)nc4ccccn34)n2)c(OC)cc1N1CCC(N2CCN(S(C)(=O)=O)CC2)CC1 (2.5 µM)
inactive: [1] 0 | [2] 0 | [3] 0 | [4] 0 | [5] 0 | [6] 0 | [7] 0 | [8] 0 | [9] 0 | [10] 0

CN1CCN(Cc2ccc(-c3cnc4[nH]cc(-c5ccc6[nH]ccc6c5)c4c3)cc2)CC1 (2.5 µM)
inactive: [1] 0 | [2] 0 | [3] 0 | [4] 0 | [5] 0 | [6] 0 | [7] 0 | [8] 0 | [9] 0 | [10] 0

C=CC(=O)N1CCC(c2ccc(C(N)=O)c(-c3ccc(Oc4ccccc4)cc3)n2)CC1 [Orelabrutinib] (2.5 µM)
inactive: [1] 0 | [2] 0 | [3] 0 | [4] 0 | [5] 0 | [6] 0 | [7] 0 | [8] 0 | [9] 0 | [10] 0

Nc1nc(Nc2ccc3c(c2)CC[C@@H](N2CCCC2)CC3)nn1-c1cc2c(nn1)-c1ccccc1CCC2 [Bemcentinib] (2.5 µM)
inactive: [1] 0 | [2] 0 | [3] 0 | [4] 0 | [5] 0 | [6] 0 | [7] 0 | [8] 0 | [9] 0 | [10] 0

CC(C1CC1)n1cnc2c(NCc3cccc(C(F)(F)F)c3)nc(NCCN(C)C)nc21 (stereo not given) (10 µM)
inactive: [1] 0 | [2] 0 | [3] 0 | [4] 0 | [5] 0 | [6] 0 | [7] 0 | [8] 0 | [9] 0 | [10] 0

O=S(=O)(c1ccc(O)cc1O)N1Cc2cc(O)cc(O)c2C1 (10 µM)
inactive: [1] 0 | [2] 0 | [3] 0 | [4] 0 | [5] 0 | [6] 0 | [7] 0 | [8] 0 | [9] 0 | [10] 0

CC1=CC(=O)C(C(C)C)=C/C1=N/OC(=O)c1ccccc1C [Poloxin] (2.5 µM)
inactive: [1] 0 | [2] 0 | [3] 0 | [4] 0 | [5] 0 | [6] 0 | [7] 0 | [8] 0 | [9] 0 | [10] 0

C[C@@H]1CN(Cc2ccc(F)cc2)[C@@H](C)CN1C(=O)c1cc2c(C(=O)C(=O)N(C)C)cn(C)c2cc1Cl [Talmapimod] (10 µM)
inactive: [1] 0 | [2] 0 | [3] 0 | [4] 0 | [5] 0 | [6] 0 | [7] 0 | [8] 0 | [9] 0 | [10] 0

Among those listed so far, 2 contain a cyano group:
COCCNc1cc(NC(=O)N2CCCc3cc(CN4CCOCC4=O)c(C=O)nc32)ncc1C#N (10 µM)
inactive: [1] 0 | [2] 0 | [3] 0 | [4] 0 | [5] 0 | [6] 0 | [7] 0 | [8] 0 | [9] 0 | [10] 0

Cc1ccc(C2CC(=O)NC(SCC(=O)Nc3nccs3)=C2C#N)cc1 (stereo not given) [Necrostatin-34] (10 µM)
inactive: [1] 0 | [2] 0 | [3] 0 | [4] 0 | [5] 0 | [6] 0 | [7] 0 | [8] 0 | [9] 0 | [10] 0

Following part

NC(=O)c1ccccc1Nc1ccnc(Nc2cccc(O)c2)n1 (10 µM)
inactive: [1] 0 | [2] 0 | [3] 0 | [4] 0 | [5] 0 | [6] 0 | [7] 0 | [8] 0 | [9] 0 | [10] 0

CCc1c(C(=O)NNC(=O)[C@H](O)c2cc(F)cc(F)c2)ccc(O)c1C (10 µM)
inactive: [1] 0 | [2] 0 | [3] 0 | [4] 0 | [5] 0 | [6] 0 | [7] 0 | [8] 0 | [9] 0 | [10] 0

CN(C[C@@H]1COCCO1)S(=O)(=O)Nc1ccc2ccc3ncc(-c4cnn(C)c4)cc3c(=O)c2c1 (2.5 µM)
inactive: [1] 0 | [2] 0 | [3] 0 | [4] 0 | [5] 0 | [6] 0 | [7] 0 | [8] 0 | [9] 0 | [10] 0

COc1cc2nc(NC3CC3)nc(NC3CCN(C(C)C)CC3)c2cc1OC (10 µM)
inactive: [1] 0 | [2] 0 | [3] 0 | [4] 0 | [5] 0 | [6] 0 | [7] 0 | [8] 0 | [9] 0 | [10] 0

Fc1ccc(-c2nc3n(c2-c2ccncc2)CCS3)cc1 (10 µM)
inactive: [1] 0 | [2] 0 | [3] 0 | [4] 0 | [5] 0 | [6] 0 | [7] 0 | [8] 0 | [9] 0 | [10] 0

O=C(COc1ccc(Cl)cc1)NC1CCC(NC(=O)COc2ccc(Cl)cc2)CC1 (stereo not drawn) [ISRIB (trans-isomer)] (10 µM)
inactive: [1] 0 | [2] 0 | [3] 0 | [4] 0 | [5] 0 | [6] 0 | [7] 0 | [8] 0 | [9] 0 | [10] 0

O=c1c(O)c(-c2ccc(O)c(O)c2)oc2cc(O)c(O)c(O)c12 [Quercetagetin] (10 µM)
inactive: [1] 0 | [2] 0 | [3] 0 | [4] 0 | [5] 0 | [6] 0 | [7] 0 | [8] 0 | [9] 0 | [10] 0

CN1CCC(Nc2ccc(C(=O)Nc3cc(-c4ccc5c(c4)OCO5)[nH]n3)cc2)CC1 (10 µM)
inactive: [1] 0 | [2] 0 | [3] 0 | [4] 0 | [5] 0 | [6] 0 | [7] 0 | [8] 0 | [9] 0 | [10] 0

O=C(Nc1ccc(Cl)cc1)C1CN(C(=O)c2cccc(-c3ccco3)c2)CC(F)(F)C1 (stereo not given) (2.5 µM)
inactive: [1] 0 | [2] 0 | [3] 0 | [4] 0 | [5] 0 | [6] 0 | [7] 0 | [8] 0 | [9] 0 | [10] 0

CNCc1ccccc1Sc1cccc2ccccc12 [IFN alpha-IFNAR-IN-1 (hydrochloride)] (10 µM)
inactive: [1] 0 | [2] 0 | [3] 0 | [4] 0 | [5] 0 | [6] 0 | [7] 0 | [8] 0 | [9] 0 | [10] 0

CCOC(=O)c1c(Nc2ccccc2Cl)oc(/C=C2\C=Nc3ncccc32)c1O (10 µM)
inactive: [1] 0 | [2] 0 | [3] 0 | [4] 0 | [5] 0 | [6] 0 | [7] 0 | [8] 0 | [9] 0 | [10] 0

From the supplement of paper PMC12823440, “Inhibitors supercharge kinase turnover through native proteolytic circuits” (Nature, 2025)
